In publication PMC8140157, “RTEL1 influences the abundance and localization of TERRA RNA” (Nature Communications, 2020):
For some of these results: No signal at the amounts used counts as a negative. At least one verdict rests on a figure or table, not on a statement of the authors. Where a protein sequence is shown, tags need not be part of it. For some of these results: The exact form of at least one protein or probe is not confirmed. For some of these results: A weaker result is weaker than the reference pair of the same experiment.

How the values were obtained:
RTEL1∆1143 (human) = test system: T1, RTEL1∆1143 (human); assay: fluorescence anisotropy; conditions: direct binding, no binding signal; 20 mM Tris pH 7.5, 50 mM KCl, 0.5 mM TCEP, 0.5 mM MgCl2, 10% glycerol, 0.1% IGEPAL, room temperature 30 min; oligos refolded in 10 mM Tris pH 7.5, 100 mM KCl; recombinant protein; residues 1143-1300; protein details: 6xHis; label: 5' fluorescein
T1 sequence (looked up): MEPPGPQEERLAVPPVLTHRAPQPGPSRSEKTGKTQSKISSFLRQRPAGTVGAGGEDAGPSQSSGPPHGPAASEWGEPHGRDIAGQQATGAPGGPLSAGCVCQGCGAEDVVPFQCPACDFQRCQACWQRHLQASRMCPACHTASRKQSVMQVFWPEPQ

RTEL1∆762-1097 (human) = test system: T2, RTEL1∆762-1097 (human); assay: EMSA; conditions: 300 mM KCl (acutely salt sensitive vs 150 mM); 20 mM Tris pH 7.5, 50 mM KCl, 0.5 mM TCEP, 0.5 mM MgCl2, 10% glycerol, 0.1% IGEPAL, room temperature 30 min; oligos refolded in 10 mM Tris pH 7.5, 100 mM KCl; recombinant protein; residues 762-1097; protein details: 6xHis; label: 5' fluorescein
T2 sequence (looked up): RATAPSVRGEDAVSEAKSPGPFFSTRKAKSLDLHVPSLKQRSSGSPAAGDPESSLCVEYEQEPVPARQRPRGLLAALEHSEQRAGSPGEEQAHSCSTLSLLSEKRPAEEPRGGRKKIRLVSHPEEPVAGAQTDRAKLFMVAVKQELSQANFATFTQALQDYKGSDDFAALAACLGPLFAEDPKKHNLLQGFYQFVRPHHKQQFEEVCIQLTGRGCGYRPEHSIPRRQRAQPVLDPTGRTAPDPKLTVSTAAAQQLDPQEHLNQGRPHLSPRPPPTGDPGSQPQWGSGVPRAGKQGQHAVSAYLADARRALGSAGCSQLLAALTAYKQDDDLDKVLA

RTEL1∆762 (human) = test system: T3, RTEL1∆762 (human); assay: EMSA; conditions: 300 mM KCl (not acutely salt sensitive); 20 mM Tris pH 7.5, 50 mM KCl, 0.5 mM TCEP, 0.5 mM MgCl2, 10% glycerol, 0.1% IGEPAL, room temperature 30 min; oligos refolded in 10 mM Tris pH 7.5, 100 mM KCl; recombinant protein; residues 762-1300; protein details: 6xHis; label: 5' fluorescein
T3 sequence (looked up): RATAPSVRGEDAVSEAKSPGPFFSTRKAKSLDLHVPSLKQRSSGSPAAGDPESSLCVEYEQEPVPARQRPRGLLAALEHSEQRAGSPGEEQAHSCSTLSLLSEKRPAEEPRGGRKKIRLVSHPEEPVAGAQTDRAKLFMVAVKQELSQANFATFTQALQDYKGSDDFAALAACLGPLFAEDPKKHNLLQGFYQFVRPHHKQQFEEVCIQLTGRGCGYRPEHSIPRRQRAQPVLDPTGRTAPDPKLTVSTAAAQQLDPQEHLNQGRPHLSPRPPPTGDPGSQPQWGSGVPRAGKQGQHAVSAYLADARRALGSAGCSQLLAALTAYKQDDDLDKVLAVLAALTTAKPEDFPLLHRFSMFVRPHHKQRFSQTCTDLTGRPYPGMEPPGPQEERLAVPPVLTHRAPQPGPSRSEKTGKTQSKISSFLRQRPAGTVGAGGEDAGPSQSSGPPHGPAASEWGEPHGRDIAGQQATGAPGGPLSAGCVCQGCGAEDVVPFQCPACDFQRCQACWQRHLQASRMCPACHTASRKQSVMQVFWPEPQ

Sequence | binding result (RTEL1∆1143 (human)) | binding result (RTEL1∆762-1097 (human)) | binding result (RTEL1∆762 (human))
UUACCGUUACCGUUACCGUUACCG [TERRA-MUT (FAM)] | no binding | – | –
UUAGGGUUAGGGUUAGGGUUAGGG [TERRA (FAM), folded in KCl] | no binding | binds more weakly | binds
